PubChem BioAssay AID1259425 – University of Nebraska Medical Center | 2018
In all, the deposit lists about 14,000 reagents; below is a part drawn at random. Not all columns of the deposit are shown. Not stated in the record: the time to read-out.

Aim: 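Seek colon cancer weak points whose silencing resembles KSR1 loss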 (primary screen)
Cell system: HCT116 human colon cancer cells
Knock-down reagent: siRNA pool against human genes, 50 nM siRNA
Measured: 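After 50 nM siRNA pool, branched-DNA assay measures six marker transcripts per well, minus blank, normalised to the geometric mean of two housekeeping transcripts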
Scale: BNIP3L mRNA: higher = more BNIP3L transcript after knockdown; NDRG1 mRNA: higher = more NDRG1 transcript after knockdown; BNIP3 mRNA: higher = more BNIP3 transcript after knockdown

target gene	BNIP3L mRNA, set 1	NDRG1 mRNA, set 1	BNIP3 mRNA, set 1
AQP9	0.156	0.241	0.32
PCDHGB4	0.0853	0.0848	0.296
LYVE1	0.203	0.197	0.291
MUC3B	0.0823	0.108	0.409
DDX18	0.119	0.194	0.475
MLXIP	0.0579	0.0812	0.258
SPOCK1	0.0527	0.0735	0.246
SMPX	0.105	0.181	0.331
MIF	0.0905	0.084	0.344
AP4E1	0.159	0.153	0.311
FCAMR	0.257	0.418	0.438
DGCR2	0.0988	0.54	0.271
KYNU	0.0693	0.0874	0.232
STAU2	0.121	0.524	0.292
EVC	0.0678	0.185	0.31
TUBA4B	0.117	0.499	0.338
BMAL2	0.0815	0.0922	0.206
TMEM33	0.0823	0.5	0.297
GTF2B	0.167	0.187	0.478

Targets listed so far whose target name begins with M or m (3):
target gene	BNIP3L mRNA, set 1	NDRG1 mRNA, set 1	BNIP3 mRNA, set 1
MUC3B	0.0823	0.108	0.409
MLXIP	0.0579	0.0812	0.258
MIF	0.0905	0.084	0.344

Continued.
target gene	BNIP3L mRNA, set 1	NDRG1 mRNA, set 1	BNIP3 mRNA, set 1
VBP1	0.116	0.16	0.29
ELAVL1	0.0626	0.134	0.27
LHB	0.125	0.458	0.272
TMOD1	0.0593	0.11	0.335
CA9	0.0941	0.502	0.371
INO80	0.0471	0.164	0.335
TSPY2	0.0784	0.317	0.306
BET1	0.189	0.173	0.233
ZNF219	0.0984	0.132	0.427
LRRC61	0.165	0.156	0.276
EGR2	0.121	5.26	0.479
COQ4	0.129	0.348	0.36
FMN2	0.0641	0.0954	0.353
CCDC91	0.0467	0.0975	0.285
ANKRD1	0.0822	0.26	0.317
